Measurements: the supplement of paper PMC12067093, “Discovery and optimisation of a covalent ligand for TRIM25 and its application to targeted protein ubiquitination” (Chemical Science, 2025)
This is one part of the list.

Compound: Cc1cc(ccc1-c1ccccc1)C(=O)N1CCCN(CC1)C(=O)CCl [compound 10]
Assay: probe-labelled cysteine peptide fold change vs DMSO (competition) (log2 fold change); higher = less target engagement (more negative = stronger competition)
Conditions: THP-1, incubation time: 4 h
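Further: competitive profiling in live THP-1 cells: cysteine peptides tagged with an iodoacetamide desthiobiotin (IA-DTB) probe, intensity after compound treatment relative to DMSO-treated cells.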

Row | Target | probe-labelled cysteine peptide fold change (10 µM) | probe-labelled cysteine peptide fold change (50 µM)
1 | HDLBP_Q00341_683_SIMEECGGVHIHFPVEGSGSDTVVIR (UniProt Q00341) | 0.111 | 0.13
2 | HDLBP_Q00341_683_SIMEECGGVHIHFPVEGSGSDTVVIRGPSSDVEK (UniProt Q00341) | 0.134 | -0.0608
3 | HK1_P19367_886_CNVSFLLSEDGSGK (UniProt P19367) | 0.132 | 0.0813
4 | HDAC6_Q9UBN7_539_CLTLTPRPATEAELLTCHSAEYVGHLR (UniProt Q9UBN7) | -0.173 | -0.424
5 | HMBS_P08397_261_HLEGGCSVPVAVHTAMK (UniProt P08397) | -0.0518 | -0.324
6 | HDAC10_Q969S8_102_ETQVLGKEELQALSGQFDAIYFHPSTFHCAR (UniProt Q969S8) | 0.446 | 0.128
7 | HERC1_Q15751_3818_DVLVVNCTAEWAAANHVLATCR (UniProt Q15751) | 0.0212 | 0.00404
8 | HERC4_Q5GLZ8_175_YGQLGLGTDCK (UniProt Q5GLZ8) | -0.052 | -0.122
9 | HINT3_Q9NQE9_96_HIGNCR (UniProt Q9NQE9) | -0.00489 | 0.142
10 | HEATR3_Q7Z4Q2_173_NSIENIANETVNVLWNICECSSR (UniProt Q7Z4Q2) | 0.145 | -0.174
11 | HERC2_O95714_3865_VLVALACDLELDTLPCCAETHK (UniProt O95714) | -0.408 | -0.502
12 | HCFC1_P51610_326_AGHCAVAINTR (UniProt P51610) | 0.0299 | 0.185
13 | HERC2_O95714_914_ALSALLPCAVSGNEVNISPGRR (UniProt O95714) | -0.0136 | -0.391
14 | HELB_Q8NG08_127_HICALFLK (UniProt Q8NG08) | -0.086 | -0.0379
15 | HK2_P52789_794_FLSQIESDCLALLQVR (UniProt P52789) | 0.24 | -0.122
16 | HEXB_P07686_360_CWESNPK (UniProt P07686) | 0.0248 | -0.0402
17 | HLA-DRA_P01903_188_FHYLPFLPSTEDVYDCR | 0.101 | 0.278
18 | HLA-A_P01891_363_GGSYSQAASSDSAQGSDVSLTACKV (UniProt P01891) | -0.356 | -0.619
19 | HK1_P19367_256_MCINTEWGAFGDDGSLEDIRTEFDREIDRGSLNPGK (UniProt P19367) | 0.000785 | -0.138
20 | HIP1_O00291_220_SVSVTAAGQCR (UniProt O00291) | -0.0719 | -0.0351
21 | HDAC10_Q969S8_102_EELQALSGQFDAIYFHPSTFHCAR (UniProt Q969S8) | 0.255 | -0.0511

Row | Target | probe-labelled cysteine peptide fold change (10 µM) | probe-labelled cysteine peptide fold change (50 µM)
22 | HINT1_P49773_38_CLAFHDISPQAPTHFLVIPK (UniProt P49773) | 0.0727 | 0.0613
23 | HEATR1_Q9H583_2048_HLIPCIAQFSVAMADDSLWK (UniProt Q9H583) | 0.279 | 0.303
24 | HDAC5_Q9UQL6_982_CFGHLTR (UniProt Q9UQL6) | 0.138 | -0.104
25 | HECTD4_Q9Y4D8-5_230_ENAAAALVALACAR (UniProt Q9Y4D8) | 0.183 | 0.102
26 | HDGFL2_Q7Z4V5_496_CLNALEELGTLQVTSQILQK (UniProt Q7Z4V5) | 0.306 | 0.177
27 | HERPUD1_Q15011_86_HVLHLVCNVK (UniProt Q15011) | 0.905 | -0.193
28 | HMGCR_P04035_708_SVVCEAVIPAK (UniProt P04035) | 0.31 | 0.159
29 | HLTF_Q14527_812_NDIHEDNLLECPPEELAR (UniProt Q14527) | 0.00182 | 0.123
30 | HERC1_Q15751_3849_QQGVLGLNMAPCMR (UniProt Q15751) | -0.0203 | -0.0603
31 | HMGCL_P35914_141_NINCSIEESFQR (UniProt P35914) | 0.262 | 0.184
32 | HERC2_O95714_1201_ERDDHEELAWPGIMESFFTGQNCR (UniProt O95714) | -0.0998 | -0.244
33 | HK2_P52789_386_SASLCAATLAAVLQR (UniProt P52789) | 0.118 | 0.132
34 | HDAC2_Q92769_13_VCYYYDGDIGNYYYGQGHPMK (UniProt Q92769) | 0.116 | 0.377
35 | HDAC4_P56524_777_LAVGCVVELVFK (UniProt P56524) | 0.157 | 0.082
36 | HIP1_O00291_430_QQAADDCEFLR (UniProt O00291) | 0.0761 | 0.11
37 | HCFC1_P51610_149_CYLFGGLANDSEDPK (UniProt P51610) | -0.0552 | 0.278
38 | HLA-DRB1_P04229_59_CIYNQEESVR (UniProt P04229) | 0.0937 | 0.223
39 | HERC4_Q5GLZ8_248+249_IVYICCGEDHTAALTK (UniProt Q5GLZ8) | 0.0115 | -0.359
40 | HK1_P19367_133_NQNVHMESEVYDTPENIVHGSGSQLFDHVAECLGDFMEK (UniProt P19367) | 0.0502 | 0.0873
41 | HDAC10_Q969S8_23_LLWDDPECEIERPER (UniProt Q969S8) | -0.294 | -0.208
42 | HDAC9_Q9UKV0_353_CETQTLR (UniProt Q9UKV0) | -0.0966 | -0.208

Row | Target | probe-labelled cysteine peptide fold change (10 µM) | probe-labelled cysteine peptide fold change (50 µM)
43 | HGS_O14964_166_APDWVDAEECHR (UniProt O14964) | -0.00361 | -0.0649
44 | HLA-DRA_P01903_188_KFHYLPFLPSTEDVYDCR | -0.0489 | -0.104
45 | HECTD1_Q9ULT8_254_MAAAGGTVSGPSSACKPGR (UniProt Q9ULT8) | -0.115 | -0.376
46 | HEATR5B_Q9P2D3_1693_EACTVLGEGGDSGGLIPGK (UniProt Q9P2D3) | -0.244 | 0.155
47 | HDAC4_P56524_667_HQCTCGSSSSHPEHAGR (UniProt P56524) | 0.236 | 0.0223
48 | HMGCS1_Q01581_86_NNLSYDCIGR (UniProt Q01581) | -0.204 | -0.183
49 | HERC1_Q15751_3002_RNHPGCGR (UniProt Q15751) | 0.121 | 0.209
50 | HECTD3_Q5T447_356_IVECRDDGIDVR (UniProt Q5T447) | 0.0162 | -0.165
51 | HEATR1_Q9H583_1263_QLILSCLLNICQK (UniProt Q9H583) | 0.0232 | 0.134
52 | HERC2_O95714_4204_VECGSQFSVALTK (UniProt O95714) | 0.102 | 0.122
53 | HELLS_Q9NRZ9_836_ILENSEDSSPECLF (UniProt Q9NRZ9) | -0.15 | -0.108
54 | HLA-C_P04222_364_GGSCSQAASSNSAQGSDESLIACK (UniProt P04222) | -0.0201 | -0.474
55 | HCFC1_P51610_1139_RACAAGTPAVIR (UniProt P51610) | -0.127 | -0.502
56 | HLTF_Q14527_896_RVESIQCFQNTEAGSPTIMLLSLK (UniProt Q14527) | -0.00412 | -0.00533
57 | HERC4_Q5GLZ8_392_CPNPTK (UniProt Q5GLZ8) | -0.121 | -0.328
58 | HDHD2_Q9H0R4_194+206_GTGCEPEEAVMIGDDCRDDVGGAQDVGMLGILVK (UniProt Q9H0R4) | 0.102 | 0.512
59 | HDAC1_Q13547_273_LGCFNLTIK (UniProt Q13547) | 0.00301 | 0.28
60 | HECTD4_Q9Y4D8_3446_CACIDVR (UniProt Q9Y4D8) | -0.0352 | -0.0833
61 | HCK_P08631_241_LSVPCMSSK (UniProt P08631) | -0.0986 | 0.102
62 | HERC2_O95714_3979_VPTPCEALATLRPVQLIGGEQTLFAVTADGK (UniProt O95714) | -0.316 | 0.144
63 | HCFC1_P51610_1895_TCLPGFPGAPCAIK (UniProt P51610) | 0.0141 | -0.271

Row | Target | probe-labelled cysteine peptide fold change (10 µM) | probe-labelled cysteine peptide fold change (50 µM)
64 | HDLBP_Q00341_636_RANCEAAR (UniProt Q00341) | 0.0667 | -0.04
65 | HEATR5B_Q9P2D3_1137_TDIHCR (UniProt Q9P2D3) | -0.384 | -0.96
66 | HLTF_Q14527_896_VESIQCFQNTEAGSPTIMLLSLK (UniProt Q14527) | -0.0932 | 0.112
67 | HDAC6_Q9UBN7_417_ALAEGVSASLHTLLGDPCPMLESPGAPCR (UniProt Q9UBN7) | 0.0166 | -0.0111
68 | HLA-DRA_P01903_132_EPNVLICFIDK | 0.0668 | 0.138
69 | HDAC3_O15379_268_LGCFNLSIR (UniProt O15379) | -0.0586 | 0.0393
70 | HEATR1_Q9H583_182_GTLITHCYK (UniProt Q9H583) | -0.0527 | 0.253
71 | HCFC1_P51610_1872_VAGINACGR (UniProt P51610) | -0.152 | -0.0638
72 | HEATR5A_Q86XA9_1635_QIICAAQEHVK (UniProt Q86XA9) | 0.0658 | 0.171
73 | HDLBP_Q00341_948_RCDIIIISGR (UniProt Q00341) | -0.0376 | -0.000543
74 | HERC4_Q5GLZ8_60_HTVFVLDDGTVYTCGCNDLGQLGHEK (UniProt Q5GLZ8) | -0.221 | -0.759
75 | HDAC2_Q92769_13_VCYYYDGDIGNYYYGQGHPMKPHR (UniProt Q92769) | -0.132 | -0.362
76 | HIKESHI_Q53FT3_4_MFGCLVAGR (UniProt Q53FT3) | 0.0273 | 0.227
77 | HCFC1_P51610_227_LVIYGGMSGCR (UniProt P51610) | -0.0506 | -0.268
78 | HELZ_P42694_696_ILICTHSNSAADLYIK (UniProt P42694) | 0.272 | 0.506
79 | HDLBP_Q00341_636_ANCEAAR (UniProt Q00341) | -0.0892 | 0.738
80 | HERC5_Q9UII4_468_DWITNMITTCLK (UniProt Q9UII4) | -0.00088 | -0.0192
81 | HINT1_P49773_38_IIFEDDRCLAFHDISPQAPTHFLVIPK (UniProt P49773) | -0.358 | -0.567
82 | HEATR5B_Q9P2D3_1262_IINLCENADQAHFDLALAR (UniProt Q9P2D3) | -0.034 | 0.126
83 | HERC2_O95714_2609_DGLHDLNVQCDWQQK (UniProt O95714) | -0.111 | 0.125
84 | HDAC1_Q13547_284_CVEFVK (UniProt Q13547) | -0.121 | 0.0174
